Measurements reported in PubChem BioAssay AID1224828 (NIAID, 2016).
Test: 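Regulators linking TLR4 signalling to p65 nuclear translocation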 (primary screen). Cell system: mouse RAW264.7 G9 macrophage reporter cells (GFP-p65, Tnf promoter-mCherry). Reagents: siRNA pool against mouse genes, 100 nM. Duration: 2 days siRNA transfection, then 40 min LPS before fixation. Treatment: LPS (Salmonella minnesota R595) at 10 ng/ml. Read-out: 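Imaged p65 nuclear translocation ratio, normalised to the plate median, converted to robust z-scores and averaged across two replicates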. Direction: p65 translocation robust z-score: higher = more nuclear NF-kappaB p65 after LPS than the plate median; nuclear/cytoplasmic p65 ratio: higher = more nuclear NF-kappaB p65. Call rule: 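Called active when z exceeds 3.3 or falls under -1.56 (median of Tlr4 controls), giving activity score of at least 50; no calls for control wells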. Meaning of the calls: active = hit (p65 shift raised or lowered); inactive = no clear change.
Here is a random part of about 17,000 reagents tested. Over the whole deposit, 762 (4.5%) are marked active. 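Active calls include both raised and lowered p65 entry, mostly lowered; wells with fewer than 50 cells lack a z-score.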 Raw values are not corrected between plates.

gene | p65 translocation robust z-score | nuclear/cytoplasmic p65 ratio, rep 1 | nuclear/cytoplasmic p65 ratio, rep 2 | low cell count flag | Outcome
Pcdhb16 (protocadherin beta 16) | 0.43 | 1.58 | 1.23 | enough cells to score | inactive
Ush1c (USH1 protein network component harmonin) | -0.63 | 1.51 | 1.33 | enough cells to score | inactive
Strap (serine/threonine kinase receptor associated protein) | 2.05 | 1.81 | 1.36 | enough cells to score | inactive
Nck1 (non-catalytic region of tyrosine kinase adaptor protein 1) | -0.88 | 1.33 | 1.23 | enough cells to score | inactive
Or9i1 (olfactory receptor family 9 subfamily I member 1) | -1.41 | 1.41 | 1.24 | enough cells to score | inactive
Mettl6 (methyltransferase 6, methylcytidine) | -1.17 | 1.34 | 1.25 | enough cells to score | inactive
Dclre1b (DNA cross-link repair 1B) | -1.44 | 1.29 | 1.17 | enough cells to score | inactive
Obox6 (oocyte specific homeobox 6) | 0.46 | 1.97 | 1.44 | enough cells to score | inactive
Gcsam (germinal center associated, signaling and motility) | 0 | 1.58 | 1.47 | enough cells to score | inactive
Sel1l3 (sel-1 suppressor of lin-12-like 3 (C. elegans)) | – | 1.31 | 1.3 | fewer than 50 cells per well; well left out of scoring | inactive
Arid3a (AT-rich interaction domain 3A) | 0.18 | 1.66 | 1.63 | enough cells to score | inactive
Hsf2 (heat shock factor 2) | 1.4 | 1.7 | 1.48 | enough cells to score | inactive
Slc6a2 | 0.54 | 1.48 | 1.71 | enough cells to score | inactive
Ak1 (adenylate kinase 1) | -0.18 | 2.13 | 1.36 | enough cells to score | inactive
Sectm1a (secreted and transmembrane 1A) | 0.83 | 1.67 | 2.02 | enough cells to score | inactive
Tgds (TDP-glucose 4,6-dehydratase) | – | 1.55 | 1.01 | fewer than 50 cells per well; well left out of scoring | inactive
Ahcy (S-adenosylhomocysteine hydrolase) | 0.41 | 1.65 | 1.77 | enough cells to score | inactive
Tas1r1 (taste receptor, type 1, member 1) | 0.53 | 1.59 | 1.66 | enough cells to score | inactive
Col4a1 (collagen, type IV, alpha 1) | 0.9 | 1.63 | 1.46 | enough cells to score | inactive
Tmem79 (transmembrane protein 79) | – | 1.33 | 1.51 | fewer than 50 cells per well; well left out of scoring | inactive
Tfec (transcription factor EC) | 0.09 | 1.57 | 1.49 | enough cells to score | inactive
Ndufb8 (NADH:ubiquinone oxidoreductase subunit B8) | -0.13 | 1.74 | 1.59 | enough cells to score | inactive
Nip7 (NIP7, nucleolar pre-rRNA processing protein) | 1.87 | 1.68 | 1.83 | enough cells to score | inactive
Acsl4 (acyl-CoA synthetase long-chain family member 4) | -0.11 | 1.62 | 1.58 | enough cells to score | inactive
Sdha | -0.32 | 1.44 | 1.57 | enough cells to score | inactive
Lag3 (lymphocyte-activation gene 3) | 0.71 | 1.52 | 1.52 | enough cells to score | inactive
Or2f1b (olfactory receptor family 2 subfamily F member 1B) | – | 1.13 | 1.26 | fewer than 50 cells per well; well left out of scoring | inactive
Fbh1 (F-box DNA helicase 1) | 1.18 | 1.78 | 1.61 | enough cells to score | inactive
Uchl5 (ubiquitin carboxyl-terminal esterase L5) | -0.37 | 1.49 | 1.42 | enough cells to score | inactive
Vmn1r38 (vomeronasal 1 receptor 38) | 0.19 | 1.4 | 1.26 | enough cells to score | inactive
Cd84 (CD84 antigen) | -0.04 | 1.4 | 1.37 | enough cells to score | inactive
Hc (hemolytic complement) | -1.71 | 1.3 | 1.3 | enough cells to score | active
Pfkm (phosphofructokinase, muscle) | – | 1.75 | 1.4 | fewer than 50 cells per well; well left out of scoring | inactive
Amd1 (S-adenosylmethionine decarboxylase 1) | -1.13 | 1.46 | 1.49 | enough cells to score | inactive
Mycl (Mycl proto-oncogene, bHLH transcription factor) | 0.08 | 1.81 | 1.48 | enough cells to score | inactive
1110038F14Rik (RIKEN cDNA 1110038F14 gene) | -0.6 | 1.46 | 1.36 | enough cells to score | inactive
Dhx58 (DExH-box helicase 58) | -0.33 | 1.51 | 1.75 | enough cells to score | inactive
Sp5 (trans-acting transcription factor 5) | – | 1.35 | 1.19 | fewer than 50 cells per well; well left out of scoring | inactive
Dennd1a (DENN domain containing 1A) | 0.7 | 1.44 | 1.57 | enough cells to score | inactive
Mypop (Myb-related transcription factor, partner of profilin) | – | 1.18 | 1.16 | fewer than 50 cells per well; well left out of scoring | inactive
Fign (fidgetin) | 0.06 | 1.57 | 1.5 | enough cells to score | inactive
Clca4a (chloride channel accessory 4A) | 1.2 | 1.67 | 1.63 | enough cells to score | inactive
Lrrtm1 (leucine rich repeat transmembrane neuronal 1) | 0.65 | 1.67 | 1.76 | enough cells to score | inactive
Slc9a8 | -0.27 | 1.2 | 1.2 | enough cells to score | inactive
Ost4 (oligosaccharyltransferase complex subunit 4 (non-catalytic)) | – | 1.65 | 1.31 | fewer than 50 cells per well; well left out of scoring | inactive
Celf3 (CUGBP, Elav-like family member 3) | 0.84 | 1.46 | 1.29 | enough cells to score | inactive
Them7 (thioesterase superfamily member 7) | 0.1 | 1.72 | 1.31 | enough cells to score | inactive
Tacr2 (tachykinin receptor 2) | -1.65 | 1.28 | 1.1 | enough cells to score | active
Fer (FER tyrosine kinase) | 0.43 | 1.69 | 1.49 | enough cells to score | inactive
Rbmx2 (RNA binding motif protein, X-linked 2) | – | 1.98 | 1.35 | fewer than 50 cells per well; well left out of scoring | inactive
Ghitm (growth hormone inducible transmembrane protein) | -0.1 | 1.47 | 1.55 | enough cells to score | inactive
Stat4 (signal transducer and activator of transcription 4) | – | 1.48 | 1.31 | fewer than 50 cells per well; well left out of scoring | inactive
Kcnq1 (potassium voltage-gated channel, subfamily Q, member 1) | 0.04 | 1.37 | 1.48 | enough cells to score | inactive
Npc1l1 (NPC1 like intracellular cholesterol transporter 1) | 0 | 1.78 | 1.47 | enough cells to score | inactive
Trip10 (thyroid hormone receptor interactor 10) | 0.6 | 1.56 | 1.62 | enough cells to score | inactive
Fgf21 (fibroblast growth factor 21) | -0.32 | 1.32 | 1.4 | enough cells to score | inactive
Tmed5 (transmembrane p24 trafficking protein 5) | – | 1.33 | 1.09 | fewer than 50 cells per well; well left out of scoring | inactive
Tafa4 (TAFA chemokine like family member 4) | 1.87 | 1.72 | 1.74 | enough cells to score | inactive
Zfp92 (zinc finger protein 92) | 0.42 | 1.52 | 1.25 | enough cells to score | inactive
Atf5 (activating transcription factor 5) | 0.7 | 1.84 | 1.61 | enough cells to score | inactive
Rasal1 (RAS protein activator like 1 (GAP1 like)) | -0.41 | 1.47 | 1.08 | enough cells to score | inactive
Rars1 (arginyl-tRNA synthetase 1) | 0.3 | 1.35 | 1.31 | enough cells to score | inactive
Ppm1n (protein phosphatase, Mg2+/Mn2+ dependent, 1N (putative)) | 0.42 | 1.65 | 1.86 | enough cells to score | inactive
Ptrh2 (peptidyl-tRNA hydrolase 2) | 1.61 | 1.7 | 1.63 | enough cells to score | inactive
Gm4736 (predicted gene 4736) | -0.4 | 1.44 | 1.53 | enough cells to score | inactive
Yipf5 (Yip1 domain family, member 5) | 1.75 | 1.63 | 1.7 | enough cells to score | inactive
Dlgap2 (DLG associated protein 2) | -1.6 | 1.23 | 1.3 | enough cells to score | active
Elmod3 (ELMO/CED-12 domain containing 3) | -0.11 | 1.63 | 1.56 | enough cells to score | inactive
Rabl2 (RAB, member RAS oncogene family-like 2) | 0.12 | 1.56 | 1.51 | enough cells to score | inactive
Tcstv1a (2 cell stage variable group member 1A) | -0.47 | 1.3 | 1.14 | enough cells to score | inactive
Gm10033 (predicted gene 10033) | 0.33 | 1.47 | 1.6 | enough cells to score | inactive
Ugt2b34 (UDP glucuronosyltransferase 2 family, polypeptide B34) | 1.16 | 1.9 | 1.69 | enough cells to score | inactive
Ccdc198 (coiled-coil domain containing 198) | -0.04 | 1.39 | 1.43 | enough cells to score | inactive
Rgs12 (regulator of G-protein signaling 12) | -1.06 | 1.37 | 1.42 | enough cells to score | inactive
Rhag (Rh associated glycoprotein) | – | 1.34 | 1.35 | fewer than 50 cells per well; well left out of scoring | inactive

In a second layout: entries from further up
{"gene":"Ndufb8 (NADH:ubiquinone oxidoreductase subunit B8)","p65 translocation robust z-score":-0.13,"nuclear/cytoplasmic p65 ratio, rep 1":1.74,"nuclear/cytoplasmic p65 ratio, rep 2":1.59,"low cell count flag":"enough cells to score","Outcome":"inactive"}
{"gene":"Nip7 (NIP7, nucleolar pre-rRNA processing protein)","p65 translocation robust z-score":1.87,"nuclear/cytoplasmic p65 ratio, rep 1":1.68,"nuclear/cytoplasmic p65 ratio, rep 2":1.83,"low cell count flag":"enough cells to score","Outcome":"inactive"}
{"gene":"Acsl4 (acyl-CoA synthetase long-chain family member 4)","p65 translocation robust z-score":-0.11,"nuclear/cytoplasmic p65 ratio, rep 1":1.62,"nuclear/cytoplasmic p65 ratio, rep 2":1.58,"low cell count flag":"enough cells to score","Outcome":"inactive"}
{"gene":"Sdha","p65 translocation robust z-score":-0.32,"nuclear/cytoplasmic p65 ratio, rep 1":1.44,"nuclear/cytoplasmic p65 ratio, rep 2":1.57,"low cell count flag":"enough cells to score","Outcome":"inactive"}
{"gene":"Lag3 (lymphocyte-activation gene 3)","p65 translocation robust z-score":0.71,"nuclear/cytoplasmic p65 ratio, rep 1":1.52,"nuclear/cytoplasmic p65 ratio, rep 2":1.52,"low cell count flag":"enough cells to score","Outcome":"inactive"}
